The values below come from paper PMC10874388, “Cyclic peptides discriminate BCL-2 and its clinical mutants from BCL-XL by engaging a single-residue discrepancy” (Nature Communications, 2024).

Certain results were filed several times, with different values. The other results are left out here. There may be further records. The records of an entry differ for a reason that is not stated; they may come from other doses, times, organisms or constructs than stated.

One assay relates to RS4:11 cells. Nature of the assay: Cell viability assay (CellTiter-Glo), RS4:11. Particulars: 5000 nM, single wells. In general terms: Cellular ATP, detected with luciferase, serves as a proxy for viable cell number.
Another assay deals with A549 cells (control). Nature of the assay: Cell viability assay (CellTiter-Glo), normal A549 (control). Particulars: 12.5 uM, single wells.

Take `O=C(c1cc(-c2cc3c(cc2C(=O)N2Cc4ccccc4C[C@H]2CN2CCOCC2)OCO3)n2c1CCCC2)N(c1ccccc1)c1ccc(O)cc1` [S55746]: in the assay on RS4:11 cells, the raw luminescence reading was 238.0, 413.0, 519.0, 340.3, 484.4, 425.0. In addition, the control inhibiton rate with A549 cells (control) was 25, 14, 24, 17, 22%.
